PubChem BioAssay AID1159578 – Peter MacCallum Cancer Centre – 2015
Screen: 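Knock-downs that alter how fast lymphatic endothelial cells migrate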 (primary screen). Cells: human lymphatic endothelial cells. Reagent: siRNA pool against human genes, 40 nM. Duration: 48 h after transfection. Measurement: 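High-content imaging of dye-stained cells in a scratch assay measures filled wound area and nuclei per well; duplicate means given as ratio to mock and robust z-score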. Scale: migration robust z-score: higher = faster migration into the scratch; nuclei per well: higher = more cells in the well. Hit rule: 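Pools averaging fewer than 3300 nuclei are never called; remaining pools count as changed when migration robust z lies outside -2 to 2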. Meaning of the calls: active = migration changed; inactive = no migration change, or too few cells.
This is a random part of about 18,000 reagents tested. Of all reagents, about 1,030 (5.7%) got an active call. 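Inactive calls also include pools with fewer than 3300 nuclei, whose migration was not assessed.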 Raw values vary from plate to plate and are shown uncorrected. Further read-outs or replicates are left out here.

{"target":"NTNG1","migration robust z-score":0.18,"nuclei per well, duplicate mean":5932,"Call":"inactive"}
{"target":"SRP54","migration robust z-score":0,"nuclei per well, duplicate mean":5978,"Call":"inactive"}
{"target":"PPOX","migration robust z-score":-1.77,"nuclei per well, duplicate mean":4751,"Call":"inactive"}
{"target":"VCX","migration robust z-score":0.24,"nuclei per well, duplicate mean":6662,"Call":"inactive"}
{"target":"OR1L8","migration robust z-score":-0.88,"nuclei per well, duplicate mean":5857,"Call":"inactive"}
{"target":"MRC2","migration robust z-score":-0.41,"nuclei per well, duplicate mean":7184,"Call":"inactive"}
{"target":"CTSL3P","migration robust z-score":0.96,"nuclei per well, duplicate mean":5114,"Call":"inactive"}
{"target":"SLC39A7","migration robust z-score":-0.68,"nuclei per well, duplicate mean":4791,"Call":"inactive"}

The list goes on; the last 2 above are carried over.
{"target":"CTSL3P","migration robust z-score":0.96,"nuclei per well, duplicate mean":5114,"Call":"inactive"}
{"target":"SLC39A7","migration robust z-score":-0.68,"nuclei per well, duplicate mean":4791,"Call":"inactive"}
{"target":"VPS45","migration robust z-score":-3.07,"nuclei per well, duplicate mean":2236,"Call":"inactive"}
{"target":"COX7A1","migration robust z-score":0.65,"nuclei per well, duplicate mean":5818,"Call":"inactive"}
{"target":"ATP5MC2","migration robust z-score":-0.24,"nuclei per well, duplicate mean":6268,"Call":"inactive"}
{"target":"ZBP1","migration robust z-score":-1.01,"nuclei per well, duplicate mean":5507,"Call":"inactive"}
